Drawing on paper PMC6762143, this text covers binding for 2 substances.

By UniProt entry, the sequences of proteins in these tests, tags left out. Where a name states a change or a piece, a line headed by the entry shows the natural chain unless it says otherwise.
UniProt P00560: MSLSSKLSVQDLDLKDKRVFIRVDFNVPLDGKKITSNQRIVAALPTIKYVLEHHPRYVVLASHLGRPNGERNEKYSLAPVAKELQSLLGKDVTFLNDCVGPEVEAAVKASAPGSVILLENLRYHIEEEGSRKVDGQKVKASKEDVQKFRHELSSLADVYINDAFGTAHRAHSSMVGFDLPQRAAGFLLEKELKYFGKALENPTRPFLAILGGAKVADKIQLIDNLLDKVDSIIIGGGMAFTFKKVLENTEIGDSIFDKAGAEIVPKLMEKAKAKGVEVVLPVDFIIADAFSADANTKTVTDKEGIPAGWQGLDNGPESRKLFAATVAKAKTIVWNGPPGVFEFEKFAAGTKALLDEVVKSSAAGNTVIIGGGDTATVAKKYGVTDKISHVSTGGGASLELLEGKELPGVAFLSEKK
UniProt P0DMV8: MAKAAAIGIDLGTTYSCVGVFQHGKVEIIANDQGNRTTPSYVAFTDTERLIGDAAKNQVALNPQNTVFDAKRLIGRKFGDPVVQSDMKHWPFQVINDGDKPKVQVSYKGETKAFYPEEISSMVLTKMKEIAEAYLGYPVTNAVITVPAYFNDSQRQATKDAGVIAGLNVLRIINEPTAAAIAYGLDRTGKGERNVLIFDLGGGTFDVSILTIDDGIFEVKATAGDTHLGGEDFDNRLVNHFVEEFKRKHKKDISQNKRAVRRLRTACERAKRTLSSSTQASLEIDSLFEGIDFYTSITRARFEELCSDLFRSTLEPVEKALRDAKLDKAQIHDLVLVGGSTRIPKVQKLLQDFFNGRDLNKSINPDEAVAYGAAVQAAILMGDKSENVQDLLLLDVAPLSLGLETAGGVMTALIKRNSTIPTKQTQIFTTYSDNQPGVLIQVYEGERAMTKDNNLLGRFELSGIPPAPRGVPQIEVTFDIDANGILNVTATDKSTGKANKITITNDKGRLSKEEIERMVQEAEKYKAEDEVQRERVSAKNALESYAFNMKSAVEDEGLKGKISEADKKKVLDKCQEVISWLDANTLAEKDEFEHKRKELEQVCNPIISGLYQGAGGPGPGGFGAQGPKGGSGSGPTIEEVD

In test [1] the target is ePGK3 (PGK mutant labeled by mEGFP at the N-terminus) (yeast) (UniProt P00560). The experiment in a line: FRET or BRET; in vitro thermal scan in a fluorimeter; 1:1 (1 μM mHsp70 with 1 μM ePGK) or 1:5 mHsp70:ePGK; K1 buffer, 10 mM DTT, 2 mM ATP, ATP regenerating mix; no crowder; both purified. A general note: In BRET a luciferase serves as donor, and the signal depends on an acceptor being close.

Test [2] has as its target ePGK0 (PGK mutant labeled by mEGFP at the N-terminus) (yeast) (UniProt P00560). The description is as above.
Test [3] has as its target ePGK3 (PGK mutant labeled by mEGFP at the N-terminus) (yeast) (UniProt P00560). The experiment in a line: FRET or BRET; in vitro thermal scan in a fluorimeter; 1:1 mHsp70:ePGK with 300 mg/mL Ficoll70, ATP and Hsp40, without cell lysate; both purified.
Test [4] shares this target. Nature of the test: FRET or BRET; in vitro thermal scan in a fluorimeter; 1:1 mHsp70:ePGK with 300 mg/mL Ficoll70, 0.6 mg/mL U-2 OS cell lysate, ATP and Hsp40; both purified.
Test [5] has the same target. The experiment in a line: FRET or BRET; in vitro thermal scan in a fluorimeter; 5:1, 5 μM mHsp70 or mHsp70K71M with 1 μM ePGK; K1 buffer, 10 mM DTT, 2 mM ATP, ATP regenerating mix; also with 10 μM Hsp40 and with 10 μM Hsp40 and 300 mg/mL Ficoll70; both purified.
Test [6] addresses ePGK0 (PGK mutant labeled by mEGFP at the N-terminus) (yeast) (UniProt P00560). The test is described as above.

Results are given in words; binding and its absence hold for the method and conditions named.

Consider “mHsp70 (Hsp70 labeled by the red acceptor mCherry at the C-terminus) (from UniProt P0DMV8 1-641)”, for which the binding result in test [1] is reported as “no binding (tested: 1 μM ePGK with 1 μM mHsp70 (1:1))”; in test [2], “no binding (tested: 1 μM ePGK with 1 μM mHsp70 (1:1))”; in test [3] it was “no binding”; in test [4], “no binding”; in test [5], “no binding”; in test [6], “no binding”.
Turning to “mHsp70K71M (ATPase activity-deficient K71M mutant of mHsp70) (from UniProt P0DMV8 1-641)”, in test [5], the binding entry is on record as “no binding”.
